A short description of data set [1]: Separation recovery method I, water phase W2 (Mn, Co, Ni sulfates) mixed with kerosine oil phase of the metal extractant. As for the experimental part:
(§1) In addition, each of sulfates of a combination of metal ions shown in Table 1-1 was dissolved in ultrapure water to prepare each of metal ion-containing aqueous solutions (W2) and (W3) including two or three kinds of metal ions.
(§2) 12 mL of the extractant (Y1) with respect to 10 mL of the prepared metal ion-containing aqueous solution (W1) was added to a 30 mL vial tube, and the mixture was stirred using a stirrer tip at 25° C. for 30 minutes. In this case, the mixing amount (unit: equivalent) of the metal extractant with respect to the total content of metal ions to be coordinated (that have the same definition as the extracted metal ions; in Example 1, Co and Ni) was 0.5. Next, a 10 M sodium hydroxide aqueous solution or a 10 M hydrochloric acid was added to adjust the pH of the mixed solution to a value shown in the column “pH during Mixing” of Table 1-2. Further, the solution was stirred at 25° C. for 30 minutes, and was left to stand at the same temperature for 1 hour. After verifying that the solution was separated into two layers of the organic phase (oil phase) and the water phase, the separated water phase was extracted, and the separation and recovery of the metal ions was performed. The metal ions extracted in Example 1 and the metal ions extracted in the maximum amount are shown in the column “Kind” and the column “Maximum Amount Extracted” of the column “Extracted Metal Ions” in Table 1-2, respectively.
(§3) Separation and recovery of metal ions according to Examples 2 to 4 and 8 and Comparative Examples 1 to 6 and 9 were performed using the same method as that of Example 1, except that the metal ion-containing aqueous solution and the metal extractant solution were changed to a combination shown in Table 1-1 and Table 1-2 (hereinafter, both of which are referred to as Table 1″), the pH during the mixing of the water phase and the oil phase was set to a value shown in the column “pH during Mixing” of Table 1-2, and the mixing amount (unit: equivalent) of the metal extractant with respect to the total content of metal ions to be coordinated was set to a value shown in the column “Mixing Amount” of Table 1-2 for mixing and standing. The metal ions extracted in each of Examples and the metal ions extracted in the maximum amount are shown in the column “Kind” and the column “Maximum Amount Extracted” of the column “Extracted Metal Ions” in Table 1-2, respectively.
(§4) Regarding each of the water phases used in Examples and Comparative Examples and the water phases after the extraction, the pH was measured using a pH meter (SK-620 pH II, manufactured by SATOTECH), and each of the contents of dissolved metal ions was determined using an inductively coupled plasma-optical emission spectrometer (ICP-OES) (Optima 7300 D (trade name), manufactured by Perkin Elmer Co., Ltd.). Measured values of the pH of each of the water phases used in Examples and Comparative Examples and the content of dissolved metal ions in each of the water phases are shown in the column “Water Phase pH” of Table 1-2 and the column “Metal Ion Concentration (ppm)” of Table 1-1. The maximum amount (ppm) of the metal ions extracted measured as described above was divided by the total amount (ppm) of the other metal ions extracted to calculate a ratio between the amounts thereof extracted. The result is shown in the column “Selection Ratio” of Table 1-2.

Data set [2] is described as follows: Separation recovery method I, water phase W3 (Zr, Rh sulfates) mixed with kerosine oil phase of the metal extractant. As for the experimental part: as §1
12 mL of the extractant (Y1) with respect to 10 mL of the prepared metal ion-containing aqueous solution (W1) was added to a 30 mL vial tube, and the mixture was stirred using a stirrer tip at 25° C. for 30 minutes. In this case, the mixing amount (unit: equivalent) of the metal extractant with respect to the total content of metal ions to be coordinated (that have the same definition as the extracted metal ions; in Example 1, Co and Ni) was 0.5. Next, a 10 M sodium hydroxide aqueous solution or a 10 M hydrochloric acid was added to adjust the pH of the mixed solution to a value shown in the column “pH during Mixing” of Table 1-2. Further, the solution was stirred at 25° C. for 30 minutes, and was left to stand at the same temperature for 1 hour. After verifying that the solution was separated into two layers of the organic phase (oil phase) and the water phase, the separated water phase was extracted, and the separation and recovery of the metal ions was performed. The metal ions extracted in Example 1 and the metal ions extracted in the maximum amount are shown in the column “Kind” and the column “Maximum Amount Extracted” of the column “Extracted Metal Ions” in Table 1-2, respectively. […]
Regarding each of the water phases used in Examples and Comparative Examples and the water phases after the extraction, the pH was measured using a pH meter (SK-620 pH II, manufactured by SATOTECH), and each of the contents of dissolved metal ions was determined using an inductively coupled plasma-optical emission spectrometer (ICP-OES) (Optima 7300 D (trade name), manufactured by Perkin Elmer Co., Ltd.). Measured values of the pH of each of the water phases used in Examples and Comparative Examples and the content of dissolved metal ions in each of the water phases are shown in the column “Water Phase pH” of Table 1-2 and the column “Metal Ion Concentration (ppm)” of Table 1-1. The maximum amount (ppm) of the metal ions extracted measured as described above was divided by the total amount (ppm) of the other metal ions extracted to calculate a ratio between the amounts thereof extracted. […]

A short description of data set [3]: Separation recovery method I, water phase W1 (Co, Ni sulfates) mixed with kerosine oil phase of the metal extractant. As for the experimental part:
95.4 g of cobalt (II) sulfate heptahydrate (manufactured by FUJIFILM Wako Pure Chemicals Corporation) and 95.7 g of nickel (II) sulfate heptahydrate (manufactured by FUJIFILM Wako Pure Chemicals Corporation) were added to a 1L measuring flask, were diluted with ultrapure water, and were stirred and dissolved at 30° C. As a result, a metal ion-containing aqueous solution (W1) including two kinds of metal ions was prepared.
as §2, §3, §4

The nature of data set [4]: Separation recovery method II, water phase W4 (Co, Ni sulfates with lithium chloride) mixed with kerosine oil phase of the metal extractant. The note with it: for Extracted Metal Ions Kind / Extracted Metal Ions Maximum Amount Extracted: W4 (Co, Ni, lithium chloride); for Metal Ion Concentration in Water Phase after Extraction (ppm) Co / Metal Ion Concentration in Water Phase after Extraction (ppm) Ni: W4 with lithium chloride, 20,000 ppm Co and Ni before extraction, extractant 310 mM in kerosine, 25° C., pH during mixing 1.5-2.0. As for the experimental part:
200 g of lithium chloride (manufactured by FUJIFILM Wako Pure Chemical Corporation), 95.4 g of cobalt (II) sulfate heptahydrate (manufactured by FUJIFILM Wako Pure Chemicals Corporation), and 95.7 g of nickel (II) sulfate heptahydrate (manufactured by FUJIFILM Wako Pure Chemicals Corporation) were added to a 1L measuring flask, were diluted with ultrapure water, and were stirred and dissolved at 30° C. As a result, a metal ion-containing aqueous solution (W4) including two kinds of metal ions was prepared. In this aqueous solution, in the two kinds of metal ions (cobalt and nickel), complex ions to which halide ions were coordinated were formed.
12 mL of the extractant (Y3) with respect to 10 mL of the prepared metal ion-containing aqueous solution (W4) was added to a 30 mL vial tube, and the mixture was stirred using a stirrer tip at 25° C. for 30 minutes. In this case, the mixing amount (unit: equivalent) of the metal extractant to the total content of the metal ions was 0.5. Next, a 10 M sodium hydroxide aqueous solution or a 10 M hydrochloric acid was added to adjust the pH of the mixed solution to a value shown in the column “pH during Mixing” of Table 1-2. Further, the solution was stirred at 25° C. for 30 minutes, and was left to stand at the same temperature for 1 hour. After verifying that the solution was separated into two layers of the organic phase (oil phase) and the water phase, the separated water phase was extracted, and the separation and recovery of the metal ions was performed. The metal ions extracted in Example 5 and the metal ions extracted in the maximum amount are shown in the column “Kind” and the column “Maximum Amount Extracted” of the column “Extracted Metal Ions” in Table 1-2, respectively.
The separation and recovery of the metal ions according to Examples 6 and 7 and Comparative Examples 7 and 8 was performed using the same method as that of Example 5, except that the metal ion-containing aqueous solution and the extractant solution were changed to a combination shown in Table 1-2, and the pH during the mixing of the water phase and the oil phase was set to a value shown in the column “pH during Mixing” of Table 1 for mixing and standing. The metal ions extracted in each of Examples and the metal ions extracted in the maximum amount are shown in the column “Kind” and the column “Maximum Amount Extracted” of the column “Extracted Metal Ions” in Table 1-2, respectively.
as §4

Setting [5] is: W3, 20,000 ppm Zr and Rh before extraction, pH during mixing 4.2, 25° C.

Regarding `CCCCC(CC)CC(C(=O)O)N(CCN(CC(CC)CCCC)C(CC(CC)CCCC)C(=O)O)CC(CC)CCCC` (centres unmarked) [E-1], in data set [1], the “Extracted Metal Ions Kind” value is “Mn, Co” and the “Extracted Metal Ions Maximum Amount Extracted” value was “Mn”. Further, in data set [2] (W3 (Zr, Rh)), the “Extracted Metal Ions Kind” value is recorded as “Zr, Rh” and the “Extracted Metal Ions Maximum Amount Extracted” value is given as “Zr”. Besides, in data set [2] (setting [5]), the “Metal Ion Concentration in Water Phase after Extraction (ppm) Rh” value is on record as 17,000 ppm and the “Metal Ion Concentration in Water Phase after Extraction (ppm) Zr” value was less than 1 ppm. In data set [3], the “Extracted Metal Ions Kind” value is reported as “Co, Ni” and the “Extracted Metal Ions Maximum Amount Extracted” value is listed as “Co”.
Turning to `CCCCC(CC)CCC(C(=O)O)N(CCN(CC(CC)CCCC)C(CCC(CC)CCCC)C(=O)O)CC(CC)CCCC` (centres unmarked) [E-2], in data set [3], the “Extracted Metal Ions Kind” value was “Co, Ni” and the “Extracted Metal Ions Maximum Amount Extracted” value is “Co”.
As to `CCCCC(CC)CN(CCN(CC(CC)CCCC)CC(CC)CCCC)CC(CC)CCCC` (centres unmarked) [E-3], in data set [4], the “Extracted Metal Ions Kind” value is reported as “Co, Ni”; the “Extracted Metal Ions Maximum Amount Extracted” value is given as “Co”; the “Metal Ion Concentration in Water Phase after Extraction (ppm) Co” value (“Metal Ion Concentration … (ppm) Co” below) is listed as less than 1 ppm; the “Metal Ion Concentration in Water Phase after Extraction (ppm) Ni” value (“Metal Ion Concentration … (ppm) Ni” below) is recorded as 16,000 ppm.
`CCCCCCCCCN(CCCCCCCCC)CCN(CCCCCCCCC)CCCCCCCCC` [E-4]: in data set [4], the “Extracted Metal Ions Kind” value is “Co, Ni”; the “Extracted Metal Ions Maximum Amount Extracted” value is “Co”; the “Metal Ion Concentration … (ppm) Co” value is listed as less than 1 ppm; the “Metal Ion Concentration … (ppm) Ni” value is 14,000 ppm.
Regarding `CCCCC(CC)CN(CC(CC)CCCC)CC1CCC(CN(CC(CC)CCCC)CC(CC)CCCC)CC1` (centres unmarked) [E-5], in data set [4], the “Extracted Metal Ions Kind” value is listed as “Co, Ni”; the “Extracted Metal Ions Maximum Amount Extracted” value is on record as “Co”; the “Metal Ion Concentration … (ppm) Co” value is less than 1 ppm; the “Metal Ion Concentration … (ppm) Ni” value is given as 15,000 ppm.
For `CCCCC(CC)CN(CCN(CC(CC)CCCC)C(CCCOCCOC)C(=O)O)C(CCCOCCOC)C(=O)O` (centres unmarked) [E-6], in data set [3], the “Extracted Metal Ions Kind” value was “Co, Ni” and the “Extracted Metal Ions Maximum Amount Extracted” value is recorded as “Co”.
For `CCCCC(CC)COP(=O)(O)CC(CC)CCCC` (centres unmarked) [PC-88A, mono-2-ethylhexyl(2-Ethylhexyl)phosphonate], in data set [1], the “Extracted Metal Ions Kind” value is listed as “Mn, Co, Ni” and the “Extracted Metal Ions Maximum Amount Extracted” value is listed as “Mn”.
In the case of `CCCCC(CC)CN(CC(CC)CCCC)C(=O)CN(CCN(CC(=O)O)CC(=O)N(CC(CC)CCCC)CC(CC)CCCC)CC(=O)O` (centres unmarked) [T-1], in data set [1], the “Extracted Metal Ions Kind” value is reported as “Mn, Co, Ni” and the “Extracted Metal Ions Maximum Amount Extracted” value is on record as “Mn”.
In the case of `CCCCC(CC)CN(CC(CC)CCCC)C(=O)CNCC(=O)O` (centres unmarked) [T-2], in data set [1], the “Extracted Metal Ions Kind” value is reported as “Mn, Co, Ni” and the “Extracted Metal Ions Maximum Amount Extracted” value was “Mn”.
For the molecule `CCCCC(CC)CC(OCCOC(CC(CC)CCCC)C(=O)O)C(=O)O` (centres unmarked) [T-3], in data set [3], the “Extracted Metal Ions Kind” value is “Co, Ni” and the “Extracted Metal Ions Maximum Amount Extracted” value is recorded as “Co”.
On to `CCCCC(CC)COCCOCC(CC)CCCC` (centres unmarked) [T-4], for which, in data set [4], the “Extracted Metal Ions Kind” value is recorded as “Co, Ni”; the “Extracted Metal Ions Maximum Amount Extracted” value was “Co”; the “Metal Ion Concentration … (ppm) Co” value is reported as 17,000 ppm; the “Metal Ion Concentration … (ppm) Ni” value was 18,000 ppm.
As to `CCCCC(CC)CC(C(=O)O)N(CCC(C)SC)CCN(CCC(C)SC)C(CC(CC)CCCC)C(=O)O` (centres unmarked) [T-5], in data set [3], the “Extracted Metal Ions Kind” value was “Co, Ni” and the “Extracted Metal Ions Maximum Amount Extracted” value is reported as “Co”.
In the case of `CCCCC(CC)CN(CC(CC)CCCC)CC(CC)CCCC` (centres unmarked) [Tris-2-EHA, tris(2-ethylhexyl)amine], in data set [4], the “Extracted Metal Ions Kind” value is recorded as “Co, Ni”; the “Extracted Metal Ions Maximum Amount Extracted” value was “Co”; the “Metal Ion Concentration … (ppm) Co” value was 5,000 ppm; the “Metal Ion Concentration … (ppm) Ni” value is 10,000 ppm.
As to Versatic acid 10 [VA-10], in data set [1], the “Extracted Metal Ions Kind” value is on record as “Mn, Co, Ni” and the “Extracted Metal Ions Maximum Amount Extracted” value is listed as “Mn”.

These data come from patent US20250243560A1, “METAL EXTRACTANT AND SEPARATION RECOVERY METHOD OF METAL IONS USING METAL EXTRACTANT” (FUJIFILM Corporation, priority 2022, published 2025).
